# Data: the supplement of paper PMC5355238
# Where a name gives a salt, the structure may show the parent alone. Some of the results follow. Most entries show no effect beyond the scatter of the controls.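 Using flow cytometry, the assay measures the median γH2AX antibody signal in S-phase Reh cells (a human leukemia line). Each score is the number of standard deviations from the median difference of paired plate sets. Candidate hits scored above 2.5; compounds scoring below -2 lowered MK1775-induced damage.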
# System: Reh
# Assay: Z' of S-phase gammaH2AX difference (drug + MK1775 minus drug alone) (Z-score); higher = stronger synergistic S-phase DNA damage with MK1775
# Details: MK1775 concentration 400 nM; first compound 10 µM; 4 h
row,SMILES,Z' of S-phase gammaH2AX difference (Z-score)
1,COc1cc(OC2CCN(C)CC2)ccc1Nc1ncc2c(n1)n(C1CCCC1)c(=O)n2C + C=CCn1c(=O)c2cnc(Nc3ccc(N4CCN(C)CC4)cc3)nc2n1-c1cccc(C(C)(C)O)n1 [MK1775],inactive: -0.18
2,Cc1ccc(S(=O)(=O)N[C@@H](Cc2ccccc2)C(=O)CCl)cc1 [N-p-Tosyl-L-phenylalanine chloromethyl ketone] + C=CCn1c(=O)c2cnc(Nc3ccc(N4CCN(C)CC4)cc3)nc2n1-c1cccc(C(C)(C)O)n1 [MK1775],inactive: 0.83
3,CC(NC(=O)c1ccccc1/N=C/c1c(O)ccc2ccccc12)c1ccccc1 (stereo not drawn) [Sirtinol] + C=CCn1c(=O)c2cnc(Nc3ccc(N4CCN(C)CC4)cc3)nc2n1-c1cccc(C(C)(C)O)n1 [MK1775],inactive: 0.462
4,NC1CCN(c2cccc(Cl)n2)CC1 + C=CCn1c(=O)c2cnc(Nc3ccc(N4CCN(C)CC4)cc3)nc2n1-c1cccc(C(C)(C)O)n1 [MK1775],inactive: 0.725
5,NC(=NCCC[C@H](N)C(=O)O)NO [NG-Hydroxy-L-arginine acetate] + C=CCn1c(=O)c2cnc(Nc3ccc(N4CCN(C)CC4)cc3)nc2n1-c1cccc(C(C)(C)O)n1 [MK1775],inactive: 1.04
6,CC(C)NCC(O)COc1ccc(CCOCC2CC2)cc1 (stereo not drawn) [Betaxolol hydrochloride] + C=CCn1c(=O)c2cnc(Nc3ccc(N4CCN(C)CC4)cc3)nc2n1-c1cccc(C(C)(C)O)n1 [MK1775],inactive: 0.274
7,C[C@H]1c2cccc(O)c2C(=O)C2=C(O)[C@]3(O)C(=O)C(C(N)=O)=C(O)[C@@H](N(C)C)[C@@H]3[C@@H](O)[C@@H]21 [Doxycycline hydrochloride] + C=CCn1c(=O)c2cnc(Nc3ccc(N4CCN(C)CC4)cc3)nc2n1-c1cccc(C(C)(C)O)n1 [MK1775],inactive: -0.051
8,O=C(O)CNC(=O)C(CS)Cc1ccccc1 (racemic) [DL-Thiorphan] + C=CCn1c(=O)c2cnc(Nc3ccc(N4CCN(C)CC4)cc3)nc2n1-c1cccc(C(C)(C)O)n1 [MK1775],inactive: 0.285
9,C[C@](N)(Cc1ccc(O)c(O)c1)C(=O)O [L-alpha-Methyl DOPA] + C=CCn1c(=O)c2cnc(Nc3ccc(N4CCN(C)CC4)cc3)nc2n1-c1cccc(C(C)(C)O)n1 [MK1775],inactive: 1.22
10,c1cnc(N2CCN(Cc3ccc4c(c3)OCO4)CC2)nc1 [Piribedil maleate] + C=CCn1c(=O)c2cnc(Nc3ccc(N4CCN(C)CC4)cc3)nc2n1-c1cccc(C(C)(C)O)n1 [MK1775],inactive: 0.64
11,Fc1ccc(CN(C2=NCCN2)c2c(Cl)cccc2Cl)cc1 [IMID-4F hydrochloride] + C=CCn1c(=O)c2cnc(Nc3ccc(N4CCN(C)CC4)cc3)nc2n1-c1cccc(C(C)(C)O)n1 [MK1775],inactive: 0.231
12,Cc1nn(-c2ccccc2)c(C)c1C=NN1CCN(Cc2ccccc2)CC1 + C=CCn1c(=O)c2cnc(Nc3ccc(N4CCN(C)CC4)cc3)nc2n1-c1cccc(C(C)(C)O)n1 [MK1775],inactive: -0.0998
13,Cc1ccc(NC(=O)c2ccc(CN3CCN(C)CC3)cc2)cc1Nc1nccc(-c2cccnc2)n1 [Imatinib (Gleevec)] + C=CCn1c(=O)c2cnc(Nc3ccc(N4CCN(C)CC4)cc3)nc2n1-c1cccc(C(C)(C)O)n1 [MK1775],inactive: 0.0392
14,CN1CCN(C2Cc3ccccc3Sc3ccc(Cl)cc32)CC1 (stereo not drawn) [(?)-Octoclothepin maleate] + C=CCn1c(=O)c2cnc(Nc3ccc(N4CCN(C)CC4)cc3)nc2n1-c1cccc(C(C)(C)O)n1 [MK1775],inactive: 0.626
15,CN[C@H](CC(=O)O)C(=O)O [N-Methyl-D-aspartic acid] + C=CCn1c(=O)c2cnc(Nc3ccc(N4CCN(C)CC4)cc3)nc2n1-c1cccc(C(C)(C)O)n1 [MK1775],inactive: 0.665
16,C#Cc1cccc(Nc2ncnc3cc(OCCOC)c(OCCOC)cc23)c1 [Erlotinib HCl] + C=CCn1c(=O)c2cnc(Nc3ccc(N4CCN(C)CC4)cc3)nc2n1-c1cccc(C(C)(C)O)n1 [MK1775],inactive: -0.0229
17,"Cn1c(=O)c2[nH]c(-c3ccccc3)nc2n(C)c1=O [1,3-Dimethyl-8-phenylxanthine] + C=CCn1c(=O)c2cnc(Nc3ccc(N4CCN(C)CC4)cc3)nc2n1-c1cccc(C(C)(C)O)n1 [MK1775]",inactive: 0.32
18,OC[C@H]1NC[C@H](O)[C@@H](O)[C@@H]1O [1-Deoxynojirimycin hydrochloride] + C=CCn1c(=O)c2cnc(Nc3ccc(N4CCN(C)CC4)cc3)nc2n1-c1cccc(C(C)(C)O)n1 [MK1775],inactive: -0.819
19,CC(C)C[C@@H](C(=O)N[C@H](C(=O)OC1CCCC1)c1ccccc1)[C@H](O)C(=O)NO [Tosedostat (CHR2797)] + C=CCn1c(=O)c2cnc(Nc3ccc(N4CCN(C)CC4)cc3)nc2n1-c1cccc(C(C)(C)O)n1 [MK1775],inactive: 0.191
20,NCCCNCCCCNCCCN [Spermine tetrahydrochloride] + C=CCn1c(=O)c2cnc(Nc3ccc(N4CCN(C)CC4)cc3)nc2n1-c1cccc(C(C)(C)O)n1 [MK1775],inactive: -0.136
21,CCN(CC)CCNC(=O)c1cc(Cl)c(N)cc1OC [Metoclopramide hydrochloride] + C=CCn1c(=O)c2cnc(Nc3ccc(N4CCN(C)CC4)cc3)nc2n1-c1cccc(C(C)(C)O)n1 [MK1775],inactive: -0.262
22,CN(C)C/C=C(/c1ccc(Br)cc1)c1cccnc1 [Zimelidine dihydrochloride] + C=CCn1c(=O)c2cnc(Nc3ccc(N4CCN(C)CC4)cc3)nc2n1-c1cccc(C(C)(C)O)n1 [MK1775],inactive: -1.41
23,N#C/C(=C\c1c[nH]c2ccccc12)C(=O)c1ccc(O)c(O)c1 [Tyrphostin AG 808] + C=CCn1c(=O)c2cnc(Nc3ccc(N4CCN(C)CC4)cc3)nc2n1-c1cccc(C(C)(C)O)n1 [MK1775],inactive: -0.953

# Retrieved one by one from the entries so far, two records:
row,SMILES,Z' of S-phase gammaH2AX difference (Z-score)
8,O=C(O)CNC(=O)C(CS)Cc1ccccc1 (racemic) [DL-Thiorphan] + C=CCn1c(=O)c2cnc(Nc3ccc(N4CCN(C)CC4)cc3)nc2n1-c1cccc(C(C)(C)O)n1 [MK1775],inactive: 0.285
23,N#C/C(=C\c1c[nH]c2ccccc12)C(=O)c1ccc(O)c(O)c1 [Tyrphostin AG 808] + C=CCn1c(=O)c2cnc(Nc3ccc(N4CCN(C)CC4)cc3)nc2n1-c1cccc(C(C)(C)O)n1 [MK1775],inactive: -0.953
